PubChem BioAssay AID1224830, NIAID | 2016
The whole screen tested about 18,000 reagents; below is a part drawn at random. About 2,900 of all reagents (16%) count as active. 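Calls are made per well; low scores hint the gene aids the LPS response, high scores that it dampens it.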 A number with no mark means an inactive call. Repeated entries: four replicate wells of each siRNA pool.

Assay: 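Regulators of TLR4 signalling towards TNF-alpha in macrophage-like cells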 (primary screen)
Cell system: human THP-1 monocytic leukaemia cells, TNF dual-luciferase reporter clone, PMA-differentiated to macrophage-like cells
Reagent: siRNA pool against human genes, 50 nM
Duration: LPS for 4 h, given about 3 days after siRNA transfection
Challenge: bacterial LPS (TLR4 ligand), 10 ng/ml
Measurement: 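Ratio of firefly to renilla light, scaled to the plate median and expressed as a robust z-score per replicate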
Scale: TNF reporter robust z-score: higher = stronger TNF reporter response to LPS
Hit rule: 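a well is active when its z-score exceeds 2.8 or falls below -1.5; control wells carry no call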

| gene knocked down | TNF reporter robust z-score |
| --- | --- |
| PNMA5 (PNMA family member 5) | -0.44 |
| PNMA5 (PNMA family member 5) | -0.38 |
| PNMA5 (PNMA family member 5) | -0.79 |
| PNMA5 (PNMA family member 5) | -0.75 |
| CTNS (cystinosin, lysosomal cystine transporter) | 5.96 (active) |
| CTNS (cystinosin, lysosomal cystine transporter) | 0.59 |
| CTNS (cystinosin, lysosomal cystine transporter) | -0.1 |
| CTNS (cystinosin, lysosomal cystine transporter) | 0.38 |
| GSTA4 (glutathione S-transferase alpha 4) | -1.27 |
| GSTA4 (glutathione S-transferase alpha 4) | -0.27 |
| GSTA4 (glutathione S-transferase alpha 4) | -0.66 |
| GSTA4 (glutathione S-transferase alpha 4) | -0.45 |
| MDGA2 (MAM domain containing glycosylphosphatidylinositol anchor 2) | 0.65 |
| MDGA2 (MAM domain containing glycosylphosphatidylinositol anchor 2) | 0.63 |
| MDGA2 (MAM domain containing glycosylphosphatidylinositol anchor 2) | 1.55 |
| MDGA2 (MAM domain containing glycosylphosphatidylinositol anchor 2) | 0.12 |
| SPATA2 (spermatogenesis associated 2) | -0.56 |
| SPATA2 (spermatogenesis associated 2) | 1.89 |
| SPATA2 (spermatogenesis associated 2) | -0.03 |
| SPATA2 (spermatogenesis associated 2) | -0.43 |
| WNT7B (Wnt family member 7B) | -0.64 |
| WNT7B (Wnt family member 7B) | 0.47 |
| WNT7B (Wnt family member 7B) | 0 |
| WNT7B (Wnt family member 7B) | 0.07 |
| PI4K2A (phosphatidylinositol 4-kinase type 2 alpha) | -0.44 |
| PI4K2A (phosphatidylinositol 4-kinase type 2 alpha) | 1.2 |
| PI4K2A (phosphatidylinositol 4-kinase type 2 alpha) | 0.64 |
| PI4K2A (phosphatidylinositol 4-kinase type 2 alpha) | 1.04 |
| DNAJB12 (DnaJ heat shock protein family (Hsp40) member B12) | -0.04 |
| DNAJB12 (DnaJ heat shock protein family (Hsp40) member B12) | 0.48 |
| DNAJB12 (DnaJ heat shock protein family (Hsp40) member B12) | -1.1 |
| DNAJB12 (DnaJ heat shock protein family (Hsp40) member B12) | 0.21 |
| GLYATL1 (glycine-N-acyltransferase like 1) | 0.08 |
| GLYATL1 (glycine-N-acyltransferase like 1) | 0.15 |
| GLYATL1 (glycine-N-acyltransferase like 1) | -0.79 |
| GLYATL1 (glycine-N-acyltransferase like 1) | -0.42 |
| TMEM106B (transmembrane protein 106B) | -0.54 |
| TMEM106B (transmembrane protein 106B) | 0.16 |
| TMEM106B (transmembrane protein 106B) | -0.13 |
| HSF2 (heat shock transcription factor 2) | -0.49 |
| HSF2 (heat shock transcription factor 2) | 0.21 |
| HSF2 (heat shock transcription factor 2) | 0.04 |
| HSF2 (heat shock transcription factor 2) | 0.22 |
| THEM6 (thioesterase superfamily member 6) | -0.68 |
| THEM6 (thioesterase superfamily member 6) | 0.44 |
| THEM6 (thioesterase superfamily member 6) | 0.51 |
| THEM6 (thioesterase superfamily member 6) | -0.55 |
| COMMD10 (COMM domain containing 10) | 2.05 |
| COMMD10 (COMM domain containing 10) | 2.51 |
| COMMD10 (COMM domain containing 10) | 0.66 |
| COMMD10 (COMM domain containing 10) | -0.72 |
| SETD5 (SET domain containing 5) | 1.66 |
| SETD5 (SET domain containing 5) | -0.71 |
| SETD5 (SET domain containing 5) | -0.68 |
| SETD5 (SET domain containing 5) | -0.36 |
| FLT1 (fms related receptor tyrosine kinase 1) | -0.14 |
| FLT1 (fms related receptor tyrosine kinase 1) | 0.53 |
| FLT1 (fms related receptor tyrosine kinase 1) | 0.12 |
| FLT1 (fms related receptor tyrosine kinase 1) | 1.54 |
| ALOX5AP (arachidonate 5-lipoxygenase activating protein) | -0.3 |
| ALOX5AP (arachidonate 5-lipoxygenase activating protein) | 2.19 |
| ALOX5AP (arachidonate 5-lipoxygenase activating protein) | -0.33 |
| ALOX5AP (arachidonate 5-lipoxygenase activating protein) | -0.2 |
| GNLY (granulysin) | -0.77 |
| GNLY (granulysin) | 0.44 |
| GNLY (granulysin) | 0.52 |
| GNLY (granulysin) | 0.05 |
| GPR173 (G protein-coupled receptor 173) | 0.51 |
| GPR173 (G protein-coupled receptor 173) | 0.65 |
| GPR173 (G protein-coupled receptor 173) | -0.12 |
| GPR173 (G protein-coupled receptor 173) | 0.85 |
| RAB3B (RAB3B, member RAS oncogene family) | -0.03 |
| RAB3B (RAB3B, member RAS oncogene family) | 0.13 |
| RAB3B (RAB3B, member RAS oncogene family) | -0.02 |
| RAB3B (RAB3B, member RAS oncogene family) | 0.48 |
| IL21 (interleukin 21) | 0.46 |
| IL21 (interleukin 21) | 0.16 |
| IL21 (interleukin 21) | 0.36 |
| IL21 (interleukin 21) | 1.55 |
| OPRPN (opiorphin prepropeptide) | 2.44 |
| OPRPN (opiorphin prepropeptide) | 1.81 |
| OPRPN (opiorphin prepropeptide) | 1.93 |
| OPRPN (opiorphin prepropeptide) | 2.3 |
| SNCAIP (synuclein alpha interacting protein) | -0.3 |
| SNCAIP (synuclein alpha interacting protein) | -0.09 |
| SNCAIP (synuclein alpha interacting protein) | 0.03 |
| SNCAIP (synuclein alpha interacting protein) | 0.17 |
| AQP9 (aquaporin 9) | -0.64 |
| AQP9 (aquaporin 9) | 1.65 |
| AQP9 (aquaporin 9) | 0.81 |
| AQP9 (aquaporin 9) | 1.54 |
| ARPIN (actin related protein 2/3 complex inhibitor) | -0.67 |
| ARPIN (actin related protein 2/3 complex inhibitor) | -1.21 |
| ARPIN (actin related protein 2/3 complex inhibitor) | -0.55 |
| ARPIN (actin related protein 2/3 complex inhibitor) | -0.15 |
| THOC2 (THO complex subunit 2) | -1.64 (active) |
| THOC2 (THO complex subunit 2) | -0.24 |
| THOC2 (THO complex subunit 2) | -0.93 |
| THOC2 (THO complex subunit 2) | -0.72 |
| HNRNPUL2 (heterogeneous nuclear ribonucleoprotein U like 2) | 0.74 |
| HNRNPUL2 (heterogeneous nuclear ribonucleoprotein U like 2) | 1.18 |
| HNRNPUL2 (heterogeneous nuclear ribonucleoprotein U like 2) | 0.15 |
| HNRNPUL2 (heterogeneous nuclear ribonucleoprotein U like 2) | 0.3 |
| CTNNA3 (catenin alpha 3) | 1.87 |
| CTNNA3 (catenin alpha 3) | 0.88 |
| CTNNA3 (catenin alpha 3) | 1.46 |
| CTNNA3 (catenin alpha 3) | 0.94 |
| WIPF1 (WAS/WASL interacting protein family member 1) | 0.61 |
| WIPF1 (WAS/WASL interacting protein family member 1) | 0.17 |
| WIPF1 (WAS/WASL interacting protein family member 1) | -1.36 |
| WIPF1 (WAS/WASL interacting protein family member 1) | 0.64 |

Reagents listed so far called active, once more:
| gene knocked down | TNF reporter robust z-score |
| --- | --- |
| CTNS (cystinosin, lysosomal cystine transporter) | 5.96 (active) |
| THOC2 (THO complex subunit 2) | -1.64 (active) |
